# Measurements: publication PMC5007356
# Amino acid sequences for entries named in this document (tags omitted).
# UniProt Q9UM11: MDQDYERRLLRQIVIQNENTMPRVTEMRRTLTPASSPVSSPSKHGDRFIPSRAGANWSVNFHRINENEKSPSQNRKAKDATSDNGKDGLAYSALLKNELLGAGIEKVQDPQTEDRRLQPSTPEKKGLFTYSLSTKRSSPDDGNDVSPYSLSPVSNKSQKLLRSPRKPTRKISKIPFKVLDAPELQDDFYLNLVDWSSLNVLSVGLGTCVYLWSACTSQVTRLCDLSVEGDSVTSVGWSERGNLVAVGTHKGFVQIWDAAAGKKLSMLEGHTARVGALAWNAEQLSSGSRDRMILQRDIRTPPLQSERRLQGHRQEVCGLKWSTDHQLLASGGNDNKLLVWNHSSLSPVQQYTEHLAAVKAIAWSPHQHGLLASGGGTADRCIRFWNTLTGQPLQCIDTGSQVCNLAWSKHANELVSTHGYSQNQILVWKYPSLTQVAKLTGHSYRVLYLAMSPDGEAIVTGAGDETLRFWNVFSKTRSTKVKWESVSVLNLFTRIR
# UniProt Q8TEP8: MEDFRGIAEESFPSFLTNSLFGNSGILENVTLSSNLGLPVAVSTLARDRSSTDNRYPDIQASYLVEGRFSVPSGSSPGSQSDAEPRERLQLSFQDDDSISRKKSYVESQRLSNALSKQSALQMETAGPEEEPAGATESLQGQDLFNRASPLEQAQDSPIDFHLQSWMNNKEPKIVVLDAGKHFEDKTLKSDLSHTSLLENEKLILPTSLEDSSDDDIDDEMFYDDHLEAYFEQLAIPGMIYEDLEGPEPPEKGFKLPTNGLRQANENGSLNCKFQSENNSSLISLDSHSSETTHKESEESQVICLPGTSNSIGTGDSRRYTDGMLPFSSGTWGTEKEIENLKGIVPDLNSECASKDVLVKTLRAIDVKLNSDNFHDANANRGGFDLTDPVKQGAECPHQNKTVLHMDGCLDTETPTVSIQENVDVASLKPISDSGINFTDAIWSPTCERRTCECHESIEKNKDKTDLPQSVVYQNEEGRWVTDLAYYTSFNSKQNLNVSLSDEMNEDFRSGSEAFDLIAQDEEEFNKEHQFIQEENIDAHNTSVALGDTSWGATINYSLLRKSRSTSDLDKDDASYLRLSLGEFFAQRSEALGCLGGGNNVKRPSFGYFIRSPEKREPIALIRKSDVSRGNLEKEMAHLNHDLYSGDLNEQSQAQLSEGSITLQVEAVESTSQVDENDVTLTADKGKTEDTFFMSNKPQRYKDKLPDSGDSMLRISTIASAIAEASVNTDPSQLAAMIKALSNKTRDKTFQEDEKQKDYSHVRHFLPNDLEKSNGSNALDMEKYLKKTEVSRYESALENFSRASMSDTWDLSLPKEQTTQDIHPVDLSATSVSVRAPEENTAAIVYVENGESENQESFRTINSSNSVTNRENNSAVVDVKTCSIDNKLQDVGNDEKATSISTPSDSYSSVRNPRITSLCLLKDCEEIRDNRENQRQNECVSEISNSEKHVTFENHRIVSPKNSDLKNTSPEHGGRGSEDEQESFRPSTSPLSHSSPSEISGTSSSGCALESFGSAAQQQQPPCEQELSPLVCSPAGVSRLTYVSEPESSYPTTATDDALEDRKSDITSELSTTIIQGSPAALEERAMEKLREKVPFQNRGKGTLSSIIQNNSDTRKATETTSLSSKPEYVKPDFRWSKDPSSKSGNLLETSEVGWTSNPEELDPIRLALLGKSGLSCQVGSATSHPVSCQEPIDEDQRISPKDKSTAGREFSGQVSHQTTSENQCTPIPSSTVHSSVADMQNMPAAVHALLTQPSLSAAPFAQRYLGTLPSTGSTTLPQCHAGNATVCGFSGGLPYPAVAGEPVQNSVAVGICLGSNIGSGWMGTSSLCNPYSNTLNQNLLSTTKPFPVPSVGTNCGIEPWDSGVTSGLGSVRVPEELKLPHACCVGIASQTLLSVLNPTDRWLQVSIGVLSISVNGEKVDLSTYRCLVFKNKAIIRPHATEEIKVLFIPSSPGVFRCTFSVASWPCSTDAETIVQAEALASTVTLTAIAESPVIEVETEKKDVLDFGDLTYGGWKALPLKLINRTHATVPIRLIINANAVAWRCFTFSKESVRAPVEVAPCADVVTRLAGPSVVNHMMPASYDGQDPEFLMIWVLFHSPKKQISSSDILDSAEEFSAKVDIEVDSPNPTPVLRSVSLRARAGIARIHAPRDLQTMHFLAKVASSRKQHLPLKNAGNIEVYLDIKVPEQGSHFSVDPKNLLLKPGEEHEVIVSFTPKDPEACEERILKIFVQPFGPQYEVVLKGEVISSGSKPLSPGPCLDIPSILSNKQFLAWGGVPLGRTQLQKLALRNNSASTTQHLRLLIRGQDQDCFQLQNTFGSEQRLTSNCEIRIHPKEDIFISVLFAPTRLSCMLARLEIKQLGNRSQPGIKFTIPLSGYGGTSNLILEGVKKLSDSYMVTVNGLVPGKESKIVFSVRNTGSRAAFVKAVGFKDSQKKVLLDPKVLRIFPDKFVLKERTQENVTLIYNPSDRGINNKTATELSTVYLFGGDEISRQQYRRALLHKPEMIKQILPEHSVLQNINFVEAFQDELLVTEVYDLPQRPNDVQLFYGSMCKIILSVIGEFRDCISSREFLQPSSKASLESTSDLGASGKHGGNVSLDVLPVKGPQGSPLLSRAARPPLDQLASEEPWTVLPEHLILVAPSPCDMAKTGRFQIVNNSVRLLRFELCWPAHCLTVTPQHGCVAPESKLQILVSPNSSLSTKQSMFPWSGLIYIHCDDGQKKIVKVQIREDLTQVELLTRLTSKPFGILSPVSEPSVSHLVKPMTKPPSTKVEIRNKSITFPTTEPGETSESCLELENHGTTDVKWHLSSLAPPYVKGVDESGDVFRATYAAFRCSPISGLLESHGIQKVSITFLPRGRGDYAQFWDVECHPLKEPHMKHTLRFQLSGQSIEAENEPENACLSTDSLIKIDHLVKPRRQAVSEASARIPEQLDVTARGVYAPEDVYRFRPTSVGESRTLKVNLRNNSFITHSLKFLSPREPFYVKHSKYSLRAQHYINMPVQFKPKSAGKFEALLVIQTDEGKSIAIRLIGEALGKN
# These are yes or no findings as the source states them, for the method shown. Binding seen in cells or lysates may run through a third protein.
# How the values were obtained:
# Cdh1 (human) (human) [1] = target: Cdh1 (human) (human) (UniProt Q9UM11); test: co-IP; immunoprecipitation of a GFP-tagged protein with GFP-Trap-A beads (Supplementary Fig. 5e); human proteins
# Cdh1 (human) (human) [2] = target: Cdh1 (human) (human) (UniProt Q9UM11); test: co-IP; antibody-coupled PrA Dynabeads (Supplementary Fig. 5d); human proteins; extracts incubated with the beads for 2 h at 4 °C
substance,measurement,setting,value
Cep192 (from UniProt Q8TEP8 1-2537),binding,Cdh1 (human) (human) [1],no binding
same,binding,Cdh1 (human) (human) [2],no binding
